These are yes or no findings as the source states them, for the method shown. In cells and extracts the contact can be indirect. A result given as binding can be weak or reduced; the word gives no strength. Where a sequence is shown, tags or fusion partners need not be part of it.

Amino acid sequences for entries named in this document (tags omitted). A change or cut given only in a name is not applied to a line headed by its entry.
UniProt P38624: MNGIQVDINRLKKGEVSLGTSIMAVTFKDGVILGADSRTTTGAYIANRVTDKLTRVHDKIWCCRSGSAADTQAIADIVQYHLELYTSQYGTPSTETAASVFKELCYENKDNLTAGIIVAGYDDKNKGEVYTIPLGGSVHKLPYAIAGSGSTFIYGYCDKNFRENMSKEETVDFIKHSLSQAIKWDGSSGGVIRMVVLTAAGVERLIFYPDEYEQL
UniProt P30657: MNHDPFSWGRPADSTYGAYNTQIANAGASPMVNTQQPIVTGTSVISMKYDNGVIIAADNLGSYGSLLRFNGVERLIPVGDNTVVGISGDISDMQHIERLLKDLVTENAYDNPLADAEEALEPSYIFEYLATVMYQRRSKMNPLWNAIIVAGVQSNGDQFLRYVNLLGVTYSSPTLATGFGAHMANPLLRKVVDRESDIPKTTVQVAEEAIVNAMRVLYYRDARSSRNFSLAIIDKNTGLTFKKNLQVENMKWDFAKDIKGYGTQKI

Test [1] deals with T1, full-length Ump1-6His (S. cerevisiae) (UniProt P38293).
T1 sequence: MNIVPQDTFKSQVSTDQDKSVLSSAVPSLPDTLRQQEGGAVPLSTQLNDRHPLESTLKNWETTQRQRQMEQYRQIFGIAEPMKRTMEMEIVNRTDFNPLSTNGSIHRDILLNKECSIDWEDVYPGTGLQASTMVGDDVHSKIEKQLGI
Put plainly: pull-down; Ump1-6His variants purified from E. coli extracts loaded on Ni-NTA beads; purified untagged β7 or β1 added, 1 h, 4 °C, lysis buffer (50 mM Tris-HCl pH 7.4, 150 mM NaCl, 5 mM MgCl2, 15% glycerol); washes with 20 mM imidazole; elution with imidazole, SDS-PAGE and Western blotting; both purified.

In test [2] the target is T2, Ump1 N-terminal part (1–81)-6His (S. cerevisiae) (UniProt P38293).
T2 sequence: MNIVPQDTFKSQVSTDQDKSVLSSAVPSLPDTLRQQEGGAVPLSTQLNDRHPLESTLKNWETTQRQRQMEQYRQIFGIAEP
Described as above.

Test [3] has as its target T3, Ump1 C-terminal part (82–148)-6His (S. cerevisiae) (UniProt P38293).
T3 sequence: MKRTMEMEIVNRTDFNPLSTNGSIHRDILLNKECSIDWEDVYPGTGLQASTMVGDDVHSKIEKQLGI
The test is described as above.

For test [4], the target named is T1, full-length Ump1-6His (S. cerevisiae). Put plainly: pull-down; native extracts of E. coli expressing Ump1-6His incubated with Ni-NTA resin, washed, then incubated with purified untagged β7 versions; elution with imidazole, anti-β7 and anti-Ump1 Western blotting, LI-COR quantification (n = 3); both purified. In general terms: A western blot detects proteins with antibodies after separation by electrophoresis.

Take “recombinant full-length β1 subunit (Pre3), untagged (from UniProt P38624)”: the binding entry in test [1] is listed as “no binding”.

For “recombinant full-length β7 subunit (Pre4), untagged (from UniProt P30657)”, the binding entry in test [2], in test [3], in test [1] and in test [4] was “binds” throughout.

The values above are taken from publication PMC8961534, “Interaction with the Assembly Chaperone Ump1 Promotes Incorporation of the β7 Subunit into Half-Proteasome Precursor Complexes Driving Their Dimerization” (Biomolecules, 2022).
